Values of other authors in patent US20040143023A1, “Materials and methods for synthesizing stilbenes” (priority 2000, published 2004).

System: P388 murine leukaemia cell line
Conditions: read-out: IC50, inhibition of cell growth

COc1ccc(/C=C\c2cc(OC)c(OC)c(OC)c2)cc1O [cis-combretastatin A-4, Z-1-(3′-Hydroxy-4′-methoxyphenyl)-2-(3″,4″,5″-trimethoxyphenyl)ethene]
IC50: 2.6 nM
